Laboratory results: PubChem BioAssay AID1159584 (Peter MacCallum Cancer Centre, 2016)

Screen: 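Genes whose loss is lethal only together with E-cadherin loss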 (primary screen)
Cells: human MCF10A breast epithelial cells, parental and CDH1-null
Reagent: siRNA against human genes
Detection: 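Cell viability by CellTiter-Glo ATP luminescence, each line scaled to the mean of mock wells across plates, then CDH1-null over parental ratio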
Reading the numbers: CDH1-null / parental viability ratio: higher = CDH1-null cells survive relatively better than parental
Shown is one part, drawn at random, of about 18,000 reagents. Not all columns of the deposit are shown. Not given: the amount of reagent, the time to read-out.

target gene	PubChem SID	CDH1-null / parental viability ratio
PLEKHG4B (GeneID 153478)	SID152155774	1.28
NRBP1 (GeneID 29959)	SID135620974	0.78
ZNF763 (GeneID 284390)	SID152152131	0.93
DEFB114 (GeneID 245928)	SID135625244	1.03
ACSL3 (GeneID 2181)	SID134314708	1.11
DDX27 (GeneID 55661)	SID134317852	0.83
MS4A15 (GeneID 219995)	SID152156005	1.17
RGS12 (GeneID 6002)	SID135621606	0.85
PPP1R42 (GeneID 286187)	SID135624525	0.82
ZNF576 (GeneID 79177)	SID134318498	1.28
FXYD3 (GeneID 5349)	SID134310009	1.18
BFSP1 (GeneID 631)	SID135622079	1.36
MROH8 (GeneID 140699)	SID152150571	1.07
SGCB (GeneID 6443)	SID135623629	0.92
RFPL3 (GeneID 10738)	SID152150006	0.77
CLIC2 (GeneID 1193)	SID152150600	1.06
KMT2C (GeneID 58508)	SID152153656	0.97
EBPL (GeneID 84650)	SID135622845	1.04
MAGEE2 (GeneID 139599)	SID134319834	1.04
ATP13A1 (GeneID 57130)	SID152148979	0.91
CCL7 (GeneID 6354)	SID134312783	0.84
RARS1 (GeneID 5917)	SID134314528	0.98
OGFRL1 (GeneID 79627)	SID152153483	1.1
SNIP1 (GeneID 79753)	SID134320469	0.86
HK1 (GeneID 3098)	SID56479165	1
MRPS14 (GeneID 63931)	SID134317290	1.16
ELMO1 (GeneID 9844)	SID152152737	1.4
SYNPO2 (GeneID 171024)	SID152156348	0.91
HNRNPCL1 (GeneID 343069)	SID152151033	0.8
DACT3 (GeneID 147906)	SID135622992	1.06
USP39 (GeneID 10713)	SID152152055	1.2
HERC4 (GeneID 26091)	SID152147236	1.22
FGF21 (GeneID 26291)	SID135622499	1.65
SYCP2 (GeneID 10388)	SID134324302	0.81
VPS50 (GeneID 55610)	SID134317168	0.68
USP29 (GeneID 57663)	SID152155064	0.95
PIK3CD-AS1 (GeneID 644997)	SID135625492	1.2
ZNF92 (GeneID 168374)	SID134324905	1.13
GLRA4 (GeneID 441509)	SID135625343	1.33
IFRD2 (GeneID 7866)	SID134320422	1
TMEM259 (GeneID 91304)	SID152147566	0.9
ZDHHC14 (GeneID 79683)	SID134320683	1.08
PCDHB14 (GeneID 56122)	SID134317752	1.33
NIP7 (GeneID 51388)	SID152152512	1.15
C15orf40 (GeneID 123207)	SID134320276	1.18
RASAL3 (GeneID 64926)	SID152151909	1.11
OR13C2 (GeneID 392376)	SID135624829	0.93
MARK2 (GeneID 2011)	SID152148068	0.68
TXNDC9 (GeneID 10190)	SID134316376	1.13
TOMM40L (GeneID 84134)	SID152153247	1.11
MIX23 (GeneID 131076)	SID135624382	0.79
CHURC1 (GeneID 91612)	SID152151237	1.04
CPLX3 (GeneID 594855)	SID152149529	0.96
AGL (GeneID 178)	SID152153923	0.73
OR10A2 (GeneID 341276)	SID135624608	1
DHRS12 (GeneID 79758)	SID134318575	1.1
TESMIN (GeneID 9633)	SID135622232	0.86
CYP1B1 (GeneID 1545)	SID134313163	1.11
SMC1A (GeneID 8243)	SID134311995	0.98
RPSA (GeneID 3921)	SID152147050	1.27
HSPB3 (GeneID 8988)	SID134313683	1.06
GOLGA7B (GeneID 401647)	SID135624836	0.92
PDCL3 (GeneID 79031)	SID152155579	1.17
GPRASP3 (GeneID 80823)	SID134326164	0.9
ERCC6L (GeneID 54821)	SID152148516	0.82
RNF125 (GeneID 54941)	SID152150081	0.96
SNX13 (GeneID 23161)	SID152152100	0.79
CCDC102B (GeneID 79839)	SID152149814	0.95

Quoted from the listing, 7 entries:
target gene	PubChem SID	CDH1-null / parental viability ratio
CCL7 (GeneID 6354)	SID134312783	0.84
RARS1 (GeneID 5917)	SID134314528	0.98
OGFRL1 (GeneID 79627)	SID152153483	1.1
SNIP1 (GeneID 79753)	SID134320469	0.86
HK1 (GeneID 3098)	SID56479165	1
MRPS14 (GeneID 63931)	SID134317290	1.16
ELMO1 (GeneID 9844)	SID152152737	1.4
